Data as given in US20230124855A1.
Results are given in words; binding and its absence hold for the method and conditions named. Some results given as binding are weak or reduced against the parent protein; the word gives no strength.

By UniProt entry, the sequences of proteins in these tests, tags left out. Residues count along the entry.
UniProt Q01973, residues 30-403: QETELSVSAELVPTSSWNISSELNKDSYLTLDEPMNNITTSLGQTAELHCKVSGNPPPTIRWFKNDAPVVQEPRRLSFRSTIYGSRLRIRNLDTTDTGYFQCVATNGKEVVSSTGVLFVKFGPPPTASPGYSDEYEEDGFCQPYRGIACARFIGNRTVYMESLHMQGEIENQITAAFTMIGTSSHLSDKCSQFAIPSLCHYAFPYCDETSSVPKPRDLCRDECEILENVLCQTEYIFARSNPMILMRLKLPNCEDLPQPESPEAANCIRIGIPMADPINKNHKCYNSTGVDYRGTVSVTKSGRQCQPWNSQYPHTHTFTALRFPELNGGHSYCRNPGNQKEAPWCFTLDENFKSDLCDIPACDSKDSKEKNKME

Target: FITC-labeled ROR1 antigen (UniProt Q01973)
Assay: FACS, FCHO cell clones double-positive for PE anti-human kappa antibody and FITC-labeled ROR1

binding: binds
B1: Positive clone with the VH of SEQ ID NO: 28 and the kappa LC of SEQ ID NO: 29 (antibody, V domains shown)
VH: QMQLVQSGPGLVKPSGTLSLTCAVSGGSISGSNWWSWVRQPPGKGLEWIGEIFHSGSTNYNPSLKSRVTISVDKSKNQFSLNLNSVTAADTAVYYCAKDRGGYYDSSGYSHWGQGTMVTVSS
VL: DIVMTQSPSSVSASVGGRVTITCRASQGISSWLAWYQQKPGRAPKLLIYAASSLQSGVPSRFSGSGSGTDFTLTISSLQPEDFATYYCQQANSFPITFGQGTRLEIKR
